Measurements reported in PubChem BioAssay AID652272 (Drosophila RNAi Screening Center, 2013)
The deposit covers about 21,000 reagents; shown is an unselected part of those that have a named target and a result. In the full data, 503 (2.4%) were called active. 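Raw plate light values, not normalised; calls rest on replicate z-scores that were not deposited; hits include reporter decreases as well as increases.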 Reagents against one gene are numbered here. The record does not give: the amount of reagent, the time to read-out.

Aim: 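Finding fly genes that regulate Hedgehog signal transduction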 (primary screen)
Cell system: Drosophila clone 8 (Cl8) cells
Reagent: long dsRNA against Drosophila genes
Measured: 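Plate reader light from a firefly reporter under a ptc promoter fragment that responds to Hedgehog, with Renilla light as transfection reference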
Reading the numbers: firefly Hh reporter signal: higher = more ptc reporter light; Renilla reference signal: higher = more Renilla control light
Active means: 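Called a hit if the two-replicate mean z-score lies below -2 or above +3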
Meaning of the calls: active = hit: reporter lowered or raised; inactive = not a hit

| gene | dsRNA no. | firefly Hh reporter signal, replicate 1 | firefly Hh reporter signal, replicate 2 | Renilla reference signal, replicate 1 | Renilla reference signal, replicate 2 | Outcome |
| --- | --- | --- | --- | --- | --- | --- |
| CG32450 | 1 | 1.84e5 | – | 4375 | – | inactive |
| CG14005 | 1 | 1.25e5 | 48882 | 4300 | 2052 | inactive |
| CG14410 | 1 | 97201 | 2.83e5 | 2946 | 10449 | inactive |
| Papss | 1 | 53602 | 93752 | 2443 | 3724 | inactive |
| CG12643 | 1 | 71492 | 1.76e5 | 2507 | 6531 | inactive |
| CG11357 | 1 | 26912 | 46137 | 3211 | 4016 | inactive |
| lncRNA:CR32027 | 1 | 2.86e5 | – | 6082 | – | inactive |
| CG31612 | 1 | 1.32e5 | 74296 | 3321 | 7467 | inactive |
| CG31612 | 2 | 92775 | 54487 | 2157 | 5778 | inactive |
| CG43059 | 1 | 1.40e5 | 2.71e5 | 4141 | 12090 | inactive |
| CG33679 | 1 | 1.37e5 | 2.44e5 | 3253 | 11836 | inactive |
| grn | 1 | 44000 | – | 1506 | – | active |
| grn | 2 | 1.35e5 | 2.06e5 | 5367 | 5212 | inactive |
| l(2)05287 | 1 | 67130 | 69635 | 2950 | 3724 | inactive |
| l(2)05287 | 2 | 76522 | 35664 | 3001 | 4992 | active |
| CG43219 | 1 | 3.25e5 | – | 6516 | – | inactive |
| CG12229 | 1 | 82544 | – | 2123 | 2528 | inactive |
| norpA | 1 | 92253 | 1.04e5 | 1528 | 3554 | inactive |
| SiaT | 1 | 72503 | 46528 | 1789 | 4304 | inactive |
| CG14401 | 1 | 1.54e5 | 82416 | 4137 | 7241 | inactive |
| Rrp6 | 1 | 87751 | 58228 | 5409 | 3255 | active |
| CG5819 | 1 | 1.21e5 | 54885 | 2972 | 2220 | inactive |
| CG32266 | 1 | 95288 | 2.31e5 | 3001 | 10089 | inactive |
| Nep7 | 1 | 86986 | 1.35e5 | 3011 | 3607 | inactive |
| CG3906 | 1 | 73028 | 62180 | 3090 | 2448 | inactive |
| Taf12 | 1 | 89592 | 88484 | 3138 | 3608 | inactive |
| CG11437 | 1 | 1.28e5 | 1.61e5 | 3760 | 2643 | inactive |
| trbl | 1 | 85284 | 80851 | 3216 | 2112 | inactive |
| CG34221 | 1 | 68724 | 66705 | 1692 | 6088 | inactive |
| Golgin104 | 1 | 66243 | 55254 | 2467 | 1399 | inactive |
| CG8818 | 1 | 60793 | 36378 | 3293 | 1450 | inactive |
| Naglu | 1 | 91264 | 81529 | 3580 | 2165 | inactive |
| CG14100 | 1 | 1.00e5 | 1.09e5 | 3616 | 2989 | inactive |
| CG14985 | 1 | 89271 | 2.15e5 | 6009 | 8019 | inactive |
| CG14985 | 2 | 1.03e5 | 51440 | 3329 | 4369 | inactive |
| CG1983 | 1 | 1.01e5 | 1.03e5 | 2128 | 2938 | inactive |
| SLO2 | 1 | 68323 | 15288 | 1991 | 1473 | inactive |
| SLO2 | 2 | 65121 | 50117 | 1261 | 3876 | inactive |
| SLO2 | 3 | 75735 | 53035 | 1336 | 4296 | inactive |
| SLO2 | 4 | 95298 | 63361 | 2194 | 4673 | inactive |
| SLO2 | 5 | 33552 | 26713 | 835 | 2124 | inactive |

2 consecutive records already listed, for reference:
| gene | dsRNA no. | firefly Hh reporter signal, replicate 1 | firefly Hh reporter signal, replicate 2 | Renilla reference signal, replicate 1 | Renilla reference signal, replicate 2 | Outcome |
| --- | --- | --- | --- | --- | --- | --- |
| CG11357 | 1 | 26912 | 46137 | 3211 | 4016 | inactive |
| lncRNA:CR32027 | 1 | 2.86e5 | – | 6082 | – | inactive |
